In US20220125891A1:
No constants are given. Whether binding was seen depends on the method and setting. Some binding calls cover weakened binding; strength is not graded here. Where a sequence is shown, tags or fusion partners need not be part of it.

Target: C-terminal segment (441 to 598) of mouse Regnase-1, released from GST (mouse) (UniProt Q5D1E7)
Assay: gel filtration, self-association

B1: C-terminal segment (441 to 598) of mouse Regnase-1, released from GST (protein)
chain: ESQMSELWGVRGGSPGESGPTRGPYAGYHSYGSKVPAAPSFSPFRPAMGAGHFSVPTDYVPPPPTYPSREYWSEPYPLPPPTPVLQEPQRPSPGAGGGPWGRVGDLAKERAGVYTKLCGVFPPHLVEAVMRRFPQLLDPQQLAAEILSYKSQHLSE
  binding: binds
